Inconclusive means that the source gave no clear call. Such entries were picked first, then a sample of the others. Active and inactive are the calls of the source. The rule behind the calls is not given here.
Experiment: caspase 3/7 activation in U251 cells, mechanism study for HRAS target identification, cell-based, luminescence, several timepoints, dry powder (AID 720615)
Settings: caspase 3/7 luminescence, apoptosis; at 35 µM (top of the series)

Caspase 3/7 activation, inconclusive:
Cc1onc(C(=O)N2CCN(C(c3ccc(Cl)cc3)c3ccc(OCCOCCOCCNC(=O)OC(C)(C)C)cc3)CC2)c1[N+](=O)[O-] (stereo not drawn) 22.7%
Cc1onc(C(=O)N2CCN(C(c3ccc(Cl)cc3)c3ccc(Cl)cc3)CC2)c1[N+](=O)[O-] 18.2%
C#CCCCC(=O)NCCOCCOCCOc1ccc(N(C(=O)CCl)C(C(=O)NCCc2ccccc2)c2cccs2)cc1Cl (stereo not drawn) 26.7%
COc1cccc2c1C(=O)c1c(O)c3c(c(O)c1C2=O)C[C@@](O)(C(=O)CO)C[C@@H]3OC1C[C@H](N)[C@H](O)[C@H](C)O1 (stereo partly drawn) -4.74%
CC(C)(C)OC(=O)NCCOCCOCCOc1ccc(N(C(=O)CCl)C(C(=O)NCCc2ccccc2)c2cccs2)cc1Cl (stereo not drawn) 23.7%
CO[C@H]1C[C@@H]2CC[C@@H](C)[C@@](O)(O2)C(=O)C(=O)N2CCCC[C@H]2C(=O)O[C@H]([C@H](C)C[C@@H]2CC[C@@H](O)[C@H](OC)C2)CC(=O)[C@H](C)/C=C(\C)[C@@H](O)[C@@H](OC)C(=O)[C@H](C)C[C@H](C)/C=C/C=C/C=C/1C 9.73%
O=C(NCCOCCOCCOc1ccc(N(C(=O)CCl)C(C(=O)NCCc2ccccc2)c2cccs2)cc1Cl)c1ccc(COC2C#CCCCCC2)cc1 (stereo not drawn) 9.73%

Caspase 3/7 activation, inactive:
CCC(=O)N(c1ccc(OC)c(Cl)c1)C(C(=O)NCCc1ccccc1)c1cccs1 (stereo not drawn) 4.74%
